These results are taken from patent US20030129703A1 (Regeneron, published 2003).

The target in assay [1] is T1, human Bone Morphogenetic Protein 4 (human) (UniProt P12644).
T1 sequence (looked up): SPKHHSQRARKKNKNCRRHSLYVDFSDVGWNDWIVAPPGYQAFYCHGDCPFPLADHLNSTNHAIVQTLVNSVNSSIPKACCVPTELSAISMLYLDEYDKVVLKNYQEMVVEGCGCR
Briefly: binding to BMP4 compared with hNG-Fc.

Assay [2] addresses T1, human Bone Morphogenetic Protein 4 (human). Briefly: binding to BMP4 compared with hNG-Fc; assay not detailed.

No constants are given. Whether binding was seen depends on the method and setting. Some results given as binding are weak or reduced against the parent protein; the word gives no strength.

B1: hNGΔ138-144Fc (Fc fusion, not shown: a dimerising Fc or GST)
chain: QHYLHIRPAPSDNLPLVDLIEHPDPIFDPKEKDLNETLLRSLLGGHYDPGFMATSPPEDRPGGGGGAAGGAEDLAELDQLLRQRPSGAMPSEIKGLEFSEGLAQGKKQRLLQMWLWSQTFCPVLYAWNDLGSRFWPRYVKVGSCFSKRSCSVPEGMVCKPSKSVHLTVLRWRCQRRGGQRCGWIPIQYPIISECKCSC
Take B1: the binding entry in assay [1] and in assay [2] was “binds” throughout.

B2: citraconyl-hNG (ligand)
chain: QHYLHIRPAPSDNLPLVDLIEHPDPIFDPKEKDLNETLLRSLLGGHYDPGFMATSPPEDRPGGGGGAAGGAEDLAELDQLLRQRPSGAMPSEIKGLEFSEGLAQGKKQRLSKKLRRKLQMWLWSQTFCPVLYAWNDLGSRFWPRYVKVGSCFSKRSCSVPEGMVCKPSKSVHLTVLRWRCQRRGGQRCGWIPIQYPIISECKCSC
modifications: citraconyl groups (chemically modified; residues not stated)
On to B2, for which the binding result in assay [2] was “binds”.
